Measured values published in PMC10742089.
These are yes or no findings as the source states them, for the method shown. In cells and extracts the contact can be indirect. A yes stands for co-enrichment or nearness to the bait. Other partners may have been found.

Amino acid sequences for entries named in this document (tags omitted). Residues count along the entry.
UniProt Q07021, residues 74-282: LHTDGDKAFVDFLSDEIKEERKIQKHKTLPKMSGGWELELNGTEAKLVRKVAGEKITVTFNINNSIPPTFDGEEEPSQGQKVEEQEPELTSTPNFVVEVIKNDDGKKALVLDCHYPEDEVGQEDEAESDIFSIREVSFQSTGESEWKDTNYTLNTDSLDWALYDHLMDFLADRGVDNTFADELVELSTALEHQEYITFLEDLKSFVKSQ
UniProt Q5SSJ5: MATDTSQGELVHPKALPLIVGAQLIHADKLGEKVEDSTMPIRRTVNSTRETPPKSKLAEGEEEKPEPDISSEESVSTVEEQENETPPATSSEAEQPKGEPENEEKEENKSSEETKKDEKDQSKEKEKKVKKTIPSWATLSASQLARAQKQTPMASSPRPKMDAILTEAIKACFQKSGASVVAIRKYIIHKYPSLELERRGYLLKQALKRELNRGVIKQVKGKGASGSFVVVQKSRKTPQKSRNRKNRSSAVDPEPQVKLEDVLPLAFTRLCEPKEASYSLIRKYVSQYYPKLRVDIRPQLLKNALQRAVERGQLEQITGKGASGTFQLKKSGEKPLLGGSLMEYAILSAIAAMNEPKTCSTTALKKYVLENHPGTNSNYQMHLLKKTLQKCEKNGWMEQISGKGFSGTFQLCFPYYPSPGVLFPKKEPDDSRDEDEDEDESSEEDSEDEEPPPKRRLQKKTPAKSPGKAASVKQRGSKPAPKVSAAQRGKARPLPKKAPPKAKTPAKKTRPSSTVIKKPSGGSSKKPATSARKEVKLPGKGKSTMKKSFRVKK
UniProt Q07954, residues 20-4544: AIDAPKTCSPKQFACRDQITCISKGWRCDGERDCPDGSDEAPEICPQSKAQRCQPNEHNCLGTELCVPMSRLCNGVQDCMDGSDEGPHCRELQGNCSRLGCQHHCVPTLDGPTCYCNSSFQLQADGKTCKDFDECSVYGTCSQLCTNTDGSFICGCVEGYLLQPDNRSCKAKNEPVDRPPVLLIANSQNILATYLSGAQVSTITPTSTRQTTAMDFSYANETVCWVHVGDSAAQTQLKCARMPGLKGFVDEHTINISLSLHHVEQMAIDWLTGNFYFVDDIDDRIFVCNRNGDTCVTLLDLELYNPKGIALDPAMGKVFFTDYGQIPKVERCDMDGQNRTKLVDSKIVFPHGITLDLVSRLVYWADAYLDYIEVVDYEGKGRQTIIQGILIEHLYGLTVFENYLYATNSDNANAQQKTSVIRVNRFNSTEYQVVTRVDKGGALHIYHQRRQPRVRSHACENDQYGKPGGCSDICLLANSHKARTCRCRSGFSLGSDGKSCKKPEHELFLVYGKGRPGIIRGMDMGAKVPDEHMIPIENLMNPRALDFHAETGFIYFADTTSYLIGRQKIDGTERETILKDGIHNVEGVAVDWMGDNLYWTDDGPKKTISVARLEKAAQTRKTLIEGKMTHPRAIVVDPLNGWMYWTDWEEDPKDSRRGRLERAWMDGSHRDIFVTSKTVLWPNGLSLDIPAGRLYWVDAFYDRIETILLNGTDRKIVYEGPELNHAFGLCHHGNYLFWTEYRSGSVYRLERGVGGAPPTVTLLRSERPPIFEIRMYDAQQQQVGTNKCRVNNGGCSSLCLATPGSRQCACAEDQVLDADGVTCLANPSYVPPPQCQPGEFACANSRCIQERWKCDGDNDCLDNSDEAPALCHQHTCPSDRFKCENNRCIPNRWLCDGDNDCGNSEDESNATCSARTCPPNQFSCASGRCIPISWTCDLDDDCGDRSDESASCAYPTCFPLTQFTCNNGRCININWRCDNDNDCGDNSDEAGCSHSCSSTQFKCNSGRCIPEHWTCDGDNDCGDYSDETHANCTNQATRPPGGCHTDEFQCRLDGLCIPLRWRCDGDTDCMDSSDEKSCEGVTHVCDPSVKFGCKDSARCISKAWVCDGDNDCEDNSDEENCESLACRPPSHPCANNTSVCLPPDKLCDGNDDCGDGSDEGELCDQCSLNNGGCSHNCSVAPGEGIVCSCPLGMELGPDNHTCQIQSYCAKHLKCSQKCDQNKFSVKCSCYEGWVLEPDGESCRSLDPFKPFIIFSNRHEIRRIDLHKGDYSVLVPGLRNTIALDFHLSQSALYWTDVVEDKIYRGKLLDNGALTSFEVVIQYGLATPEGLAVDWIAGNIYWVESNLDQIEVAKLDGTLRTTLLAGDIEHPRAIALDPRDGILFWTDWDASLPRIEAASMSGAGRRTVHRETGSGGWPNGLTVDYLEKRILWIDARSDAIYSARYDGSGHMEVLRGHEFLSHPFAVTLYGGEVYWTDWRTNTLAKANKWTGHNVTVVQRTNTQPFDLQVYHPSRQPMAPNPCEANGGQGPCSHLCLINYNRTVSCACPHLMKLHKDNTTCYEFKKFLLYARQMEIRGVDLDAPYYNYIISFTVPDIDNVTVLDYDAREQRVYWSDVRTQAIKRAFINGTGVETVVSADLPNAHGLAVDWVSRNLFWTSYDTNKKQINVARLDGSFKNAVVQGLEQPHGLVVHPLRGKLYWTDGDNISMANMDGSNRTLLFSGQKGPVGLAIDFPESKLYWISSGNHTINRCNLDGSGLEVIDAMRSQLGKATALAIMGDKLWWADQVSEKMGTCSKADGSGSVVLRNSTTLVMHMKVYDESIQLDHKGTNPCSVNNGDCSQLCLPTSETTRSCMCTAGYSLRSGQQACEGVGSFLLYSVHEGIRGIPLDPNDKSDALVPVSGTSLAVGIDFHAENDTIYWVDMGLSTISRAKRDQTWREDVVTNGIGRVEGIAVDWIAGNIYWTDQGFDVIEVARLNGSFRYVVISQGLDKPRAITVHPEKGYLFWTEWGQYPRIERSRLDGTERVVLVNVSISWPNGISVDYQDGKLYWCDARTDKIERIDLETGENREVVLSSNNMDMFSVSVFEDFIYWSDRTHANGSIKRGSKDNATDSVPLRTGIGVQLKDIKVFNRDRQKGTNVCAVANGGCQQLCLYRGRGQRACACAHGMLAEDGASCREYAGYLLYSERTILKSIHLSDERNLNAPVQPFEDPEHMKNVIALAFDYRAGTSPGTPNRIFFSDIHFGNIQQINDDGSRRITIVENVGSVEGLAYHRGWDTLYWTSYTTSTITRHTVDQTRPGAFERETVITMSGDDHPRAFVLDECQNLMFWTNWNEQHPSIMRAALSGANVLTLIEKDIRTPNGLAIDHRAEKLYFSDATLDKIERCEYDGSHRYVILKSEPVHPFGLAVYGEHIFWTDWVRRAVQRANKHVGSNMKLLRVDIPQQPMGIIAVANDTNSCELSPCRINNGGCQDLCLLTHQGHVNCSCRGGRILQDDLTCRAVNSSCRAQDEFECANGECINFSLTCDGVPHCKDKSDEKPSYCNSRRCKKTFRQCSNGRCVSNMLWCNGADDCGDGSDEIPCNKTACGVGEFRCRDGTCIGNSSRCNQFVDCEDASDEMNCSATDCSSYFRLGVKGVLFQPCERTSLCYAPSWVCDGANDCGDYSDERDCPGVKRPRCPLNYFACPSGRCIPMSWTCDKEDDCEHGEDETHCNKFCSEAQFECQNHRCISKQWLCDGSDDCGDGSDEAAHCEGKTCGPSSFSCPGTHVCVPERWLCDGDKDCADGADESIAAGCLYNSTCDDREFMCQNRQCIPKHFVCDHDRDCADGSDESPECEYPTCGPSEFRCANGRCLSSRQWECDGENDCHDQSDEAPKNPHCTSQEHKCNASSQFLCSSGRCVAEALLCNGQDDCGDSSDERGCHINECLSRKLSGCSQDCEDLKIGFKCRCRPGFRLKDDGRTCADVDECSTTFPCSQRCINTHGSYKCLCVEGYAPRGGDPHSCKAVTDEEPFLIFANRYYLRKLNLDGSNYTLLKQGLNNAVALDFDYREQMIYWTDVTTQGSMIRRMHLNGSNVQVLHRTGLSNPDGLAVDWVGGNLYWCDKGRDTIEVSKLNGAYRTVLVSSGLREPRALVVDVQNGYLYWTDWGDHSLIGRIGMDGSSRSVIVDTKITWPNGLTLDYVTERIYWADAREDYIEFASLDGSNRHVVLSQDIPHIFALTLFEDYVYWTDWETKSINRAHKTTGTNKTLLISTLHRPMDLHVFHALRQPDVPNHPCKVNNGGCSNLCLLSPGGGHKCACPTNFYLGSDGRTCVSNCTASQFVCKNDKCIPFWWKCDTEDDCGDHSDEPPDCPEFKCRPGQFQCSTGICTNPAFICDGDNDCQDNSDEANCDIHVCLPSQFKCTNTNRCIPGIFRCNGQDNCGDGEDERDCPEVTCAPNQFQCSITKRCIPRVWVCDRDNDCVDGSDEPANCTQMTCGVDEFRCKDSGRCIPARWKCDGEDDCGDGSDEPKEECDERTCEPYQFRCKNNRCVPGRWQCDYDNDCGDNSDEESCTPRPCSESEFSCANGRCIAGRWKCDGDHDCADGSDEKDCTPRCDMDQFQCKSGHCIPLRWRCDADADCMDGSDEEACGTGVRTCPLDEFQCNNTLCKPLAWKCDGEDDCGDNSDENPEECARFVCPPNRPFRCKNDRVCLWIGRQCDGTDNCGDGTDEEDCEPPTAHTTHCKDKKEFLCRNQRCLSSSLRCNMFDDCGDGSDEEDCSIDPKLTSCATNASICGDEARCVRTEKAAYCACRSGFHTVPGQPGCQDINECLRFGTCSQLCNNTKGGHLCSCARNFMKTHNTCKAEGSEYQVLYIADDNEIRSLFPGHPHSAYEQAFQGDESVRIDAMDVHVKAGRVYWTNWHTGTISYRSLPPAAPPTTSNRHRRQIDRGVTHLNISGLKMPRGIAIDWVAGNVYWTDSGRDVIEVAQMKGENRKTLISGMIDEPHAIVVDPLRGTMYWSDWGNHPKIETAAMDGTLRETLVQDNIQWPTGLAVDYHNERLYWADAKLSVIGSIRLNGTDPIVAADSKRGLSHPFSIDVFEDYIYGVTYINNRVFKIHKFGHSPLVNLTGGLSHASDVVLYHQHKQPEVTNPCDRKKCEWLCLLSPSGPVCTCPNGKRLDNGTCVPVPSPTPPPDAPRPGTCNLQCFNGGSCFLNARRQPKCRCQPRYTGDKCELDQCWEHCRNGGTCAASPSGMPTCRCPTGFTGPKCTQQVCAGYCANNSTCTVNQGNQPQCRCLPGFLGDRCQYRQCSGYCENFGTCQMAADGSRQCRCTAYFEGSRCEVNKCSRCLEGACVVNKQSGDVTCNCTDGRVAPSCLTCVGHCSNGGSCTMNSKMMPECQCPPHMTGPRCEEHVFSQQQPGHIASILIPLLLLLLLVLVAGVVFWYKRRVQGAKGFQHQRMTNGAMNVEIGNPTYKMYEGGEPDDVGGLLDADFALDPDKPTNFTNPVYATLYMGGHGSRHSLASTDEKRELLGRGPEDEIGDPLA
UniProt P51665: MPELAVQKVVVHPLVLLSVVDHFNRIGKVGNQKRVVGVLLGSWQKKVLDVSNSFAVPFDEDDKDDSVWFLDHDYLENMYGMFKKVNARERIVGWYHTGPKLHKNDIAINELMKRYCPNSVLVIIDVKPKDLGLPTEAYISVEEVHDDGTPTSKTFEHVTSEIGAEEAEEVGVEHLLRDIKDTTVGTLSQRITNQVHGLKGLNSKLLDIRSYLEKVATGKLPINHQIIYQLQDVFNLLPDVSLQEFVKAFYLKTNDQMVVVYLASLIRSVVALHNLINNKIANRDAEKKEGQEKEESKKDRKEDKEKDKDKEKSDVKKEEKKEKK
UniProt Q9UNM6: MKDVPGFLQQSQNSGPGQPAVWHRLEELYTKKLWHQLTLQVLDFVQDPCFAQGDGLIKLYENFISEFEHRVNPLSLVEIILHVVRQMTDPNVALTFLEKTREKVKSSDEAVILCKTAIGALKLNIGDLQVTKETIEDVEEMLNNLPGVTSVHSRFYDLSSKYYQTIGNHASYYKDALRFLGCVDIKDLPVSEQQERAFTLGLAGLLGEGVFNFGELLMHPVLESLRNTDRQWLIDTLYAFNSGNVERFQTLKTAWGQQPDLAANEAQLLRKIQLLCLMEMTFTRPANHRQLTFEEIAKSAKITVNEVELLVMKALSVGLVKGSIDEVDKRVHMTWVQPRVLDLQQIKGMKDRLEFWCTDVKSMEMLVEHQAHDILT

B1: NIP7 (protein, UniProt Q9Y221 1-180)
chain: MRPLTEEETRVMFEKIAKYIGENLQLLVDRPDGTYCFRLHNDRVYYVSEKIMKLAANISGDKLVSLGTCFGKFTKTHKFRLHVTALDYLAPYAKYKVWIKPGAEQSFLYGNHVLKSGLGRITENTSQYQGVVVYSMADIPLGFGVAAKSTQDCRKVDPMAIVVFHQADIGEYVRHEETLT
B2: ADNP (protein, UniProt Q9H2P0 1-1102)
chain: MFQLPVNNLGSLRKARKTVKKILSDIGLEYCKEHIEDFKQFEPNDFYLKNTTWEDVGLWDPSLTKNQDYRTKPFCCSACPFSSKFFSAYKSHFRNVHSEDFENRILLNCPYCTFNADKKTLETHIKIFHAPNASAPSSSLSTFKDKNKNDGLKPKQADSVEQAVYYCKKCTYRDPLYEIVRKHIYREHFQHVAAPYIAKAGEKSLNGAVPLGSNAREESSIHCKRCLFMPKSYEALVQHVIEDHERIGYQVTAMIGHTNVVVPRSKPLMLIAPKPQDKKSMGLPPRIGSLASGNVRSLPSQQMVNRLSIPKPNLNSTGVNMMSSVHLQQNNYGVKSVGQGYSVGQSMRLGLGGNAPVSIPQQSQSVKQLLPSGNGRSYGLGSEQRSQAPARYSLQSANASSLSSGQLKSPSLSQSQASRVLGQSSSKPAAAATGPPPGNTSSTQKWKICTICNELFPENVYSVHFEKEHKAEKVPAVANYIMKIHNFTSKCLYCNRYLPTDTLLNHMLIHGLSCPYCRSTFNDVEKMAAHMRMVHIDEEMGPKTDSTLSFDLTLQQGSHTNIHLLVTTYNLRDAPAESVAYHAQNNPPVPPKPQPKVQEKADIPVKSSPQAAVPYKKDVGKTLCPLCFSILKGPISDALAHHLRERHQVIQTVHPVEKKLTYKCIHCLGVYTSNMTASTITLHLVHCRGVGKTQNGQDKTNAPSRLNQSPSLAPVKRTYEQMEFPLLKKRKLDDDSDSPSFFEEKPEEPVVLALDPKGHEDDSYEARKSFLTKYFNKQPYPTRREIEKLAASLWLWKSDIASHFSNKRKKCVRDCEKYKPGVLLGFNMKELNKVKHEMDFDAEWLFENHDEKDSRVNASKTADKKLNLGKEDDSSSDSFENLEEESNESGSPFDPVFEVEPKISNDNPEEHVLKVIPEDASESEEKLDQKEDGSKYETIHLTEEPTKLMHNASDSEVDQDDVVEWKDGASPSESGPGSQQVSDFEDNTCEMKPGTWSDESSQSEDARSSKPAAKKKATMQGDREQLKWKNSSYGKVEGFWSKDQSQWKNASENDERLSNPQIEWQNSTIDSEDGEQFDNMTDGVAEPMHGSLAGVKLSSQQA
B3: NOL7 (protein, UniProt Q9UMY1 1-257)
chain: MVQLRPRASRAPASAEAMVDEGQLASEEEEAEHGLLLGQPSSGAAAEPLEEDEEGDDEFDDEAPEELTFASAQAEAREEERRVRETVRRDKTLLKEKRKRREELFIEQKKRKLLPDTILEKLTTASQTNIKKSPGKVKEVNLQKKNEDCEKGNDSKKVKVQKVQSVSQNKSYLAVRLKDQDLRDSRQQAAQAFIHNSLYGPGTNRTTVNKFLSLANKRLPVKRAAVQFLNNAWGIQKKQNAKRFKRRWMVRKMKTKK
B4: PLBD2 (protein, UniProt Q8NHP8 42-589)
chain: IPAPGGRWARDGQVPPASRSRSVLLDVSAGQLLMVDGRHPDAVAWANLTNAIRETGWAFLELGTSGQYNDSLQAYAAGVVEAAVSEELIYMHWMNTVVNYCGPFEYEVGYCERLKSFLEANLEWMQEEMESNPDSPYWHQVRLTLLQLKGLEDSYEGRVSFPAGKFTIKPLGFLLLQLSGDLEDLELALNKTKIKPSLGSGSCSALIKLLPGQSDLLVAHNTWNNYQHMLRVIKKYWLQFREGPWGDYPLVPGNKLVFSSYPGTIFSCDDFYILGSGLVTLETTIGNKNPALWKYVRPRGCVLEWVRNIVANRLASDGATWADIFKRFNSGTYNNQWMIVDYKAFIPGGPSPGSRVLTILEQIPGMVVVADKTSELYQKTYWASYNIPSFETVFNASGLQALVAQYGDWFSYDGSPRAQIFRRNQSLVQDMDSMVRLMRYNDFLHDPLSLCKACNPQPNGENAISARSDLNPANGSYPFQALRQRSHGGIDVKVTSMSLARILSLLAASGPTWDQVPPFQWSTSPFSGLLHMGQPDLWKFAPVKVSWD
B5: LPCAT3 (protein, UniProt Q6P1A2 1-487)
chain: MASSAEGDEGTVVALAGVLQSGFQELSLNKLATSLGASEQALRLIISIFLGYPFALFYRHYLFYKETYLIHLFHTFTGLSIAYFNFGNQLYHSLLCIVLQFLILRLMGRTITAVLTTFCFQMAYLLAGYYYTATGNYDIKWTMPHCVLTLKLIGLAVDYFDGGKDQNSLSSEQQKYAIRGVPSLLEVAGFSYFYGAFLVGPQFSMNHYMKLVQGELIDIPGKIPNSIIPALKRLSLGLFYLVGYTLLSPHITEDYLLTEDYDNHPFWFRCMYMLIWGKFVLYKYVTCWLVTEGVCILTGLGFNGFEEKGKAKWDACANMKVWLFETNPRFTGTIASFNINTNAWVARYIFKRLKFLGNKELSQGLSLLFLALWHGLHSGYLVCFQMEFLIVIVERQAARLIQESPTLSKLAAITVLQPFYYLVQQTIHWLFMGYSMTAFCLFTWDKWLKVYKSIYFLGHIFFLSLLFILPYIHKAMVPRKEKLKKME
B6: NKTR (protein, UniProt P30414 1-1462)
chain: MGAQDRPQCHFDIEINREPVGRIMFQLFSDICPKTCKNFLCLCSGEKGLGKTTGKKLCYKGSTFHRVVKNFMIQGGDFSEGNGKGGESIYGGYFKDENFILKHDRAFLLSMANRGKHTNGSQFFITTKPAPHLDGVHVVFGLVISGFEVIEQIENLKTDAASRPYADVRVIDCGVLATKSIKDVFEKKRKKPTHSEGSDSSSNSSSSSESSSESELEHERSRRRKHKRRPKVKRSKKRRKEASSSEEPRNKHAMNPKGHSERSDTNEKRSVDSSAKREKPVVRPEEIPPVPENRFLLRRDMPVVTAEPEPKIPDVAPIVSDQKPSVSKSGRKIKGRGTIRYHTPPRSRSCSESDDDDSSETPPHWKEEMQRLRAYRPPSGEKWSKGDKLSDPCSSRWDERSLSQRSRSWSYNGYYSDLSTARHSGHHKKRRKEKKVKHKKKGKKQKHCRRHKQTKKRRILIPSDIESSKSSTRRMKSSCDRERSSRSSSLSSHHSSKRDWSKSDKDVQSSLTHSSRDSYRSKSHSQSYSRGSSRSRTASKSSSHSRSRSKSRSSSKSGHRKRASKSPRKTASQLSENKPVKTEPLRATMAQNENVVVQPVVAENIPVIPLSDSPPPSRWKPGQKPWKPSYERIQEMKAKTTHLLPIQSTYSLANIKETGSSSSYHKREKNSESDQSTYSKYSDRSSESSPRSRSRSSRSRSYSRSYTRSRSLASSHSRSRSPSSRSHSRNKYSDHSQCSRSSSYTSISSDDGRRAKRRLRSSGKKNSVSHKKHSSSSEKTLHSKYVKGRDRSSCVRKYSESRSSLDYSSDSEQSSVQATQSAQEKEKQGQMERTHNKQEKNRGEEKSKSERECPHSKKRTLKENLSDHLRNGSKPKRKNYAGSKWDSESNSERDVTKNSKNDSHPSSDKEEGEATSDSESEVSEIHIKVKPTTKSSTNTSLPDDNGAWKSSKQRTSTSDSEGSCSNSENNRGKPQKHKHGSKENLKREHTKKVKEKLKGKKDKKHKAPKRKQAFHWQPPLEFGEEEEEEIDDKQVTQESKEKKVSENNETIKDNILKTEKSSEEDLSGKHDTVTVSSDLDQFTKDDSKLSISPTALNTEENVACLQNIQHVEESVPNGVEDVLQTDDNMEICTPDRSSPAKVEETSPLGNARLDTPDINIVLKQDMATEHPQAEVVKQESSMSESKVLGEVGKQDSSSASLASAGESTGKKEVAEKSQINLIDKKWKPLQGVGNLAAPNAATSSAVEVKVLTTVPEMKPQGLRIEIKSKNKVRPGSLFDEVRKTARLNRRPRNQESSSDEQTPSRDDDSQSRSPSRSRSKSETKSRHRTRSVSYSHSRSRSRSSTSSYRSRSYSRSRSRGWYSRGRTRSRSSSYRSYKSHRTSSRSRSRSSSYDPHSRSRSYTYDSYYSRSRSRSRSQRSDSYHRGRSYNRRSRSCRSYGSDSESDRSYSHHRSPSESSRYS
B7: KIF22 (protein, UniProt Q14807 1-665)
chain: MAAGGSTQQRRREMAAASAAAISGAGRCRLSKIGATRRPPPARVRVAVRLRPFVDGTAGASDPPCVRGMDSCSLEIANWRNHQETLKYQFDAFYGERSTQQDIYAGSVQPILRHLLEGQNASVLAYGPTGAGKTHTMLGSPEQPGVIPRALMDLLQLTREEGAEGRPWALSVTMSYLEIYQEKVLDLLDPASGDLVIREDCRGNILIPGLSQKPISSFADFERHFLPASRNRTVGATRLNQRSSRSHAVLLVKVDQRERLAPFRQREGKLYLIDLAGSEDNRRTGNKGLRLKESGAINTSLFVLGKVVDALNQGLPRVPYRDSKLTRLLQDSLGGSAHSILIANIAPERRFYLDTVSALNFAARSKEVINRPFTNESLQPHALGPVKLSQKELLGPPEAKRARGPEEEEIGSPEPMAAPASASQKLSPLQKLSSMDPAMLERLLSLDRLLASQGSQGAPLLSTPKRERMVLMKTVEEKDLEIERLKTKQKELEAKMLAQKAEEKENHCPTMLRPLSHRTVTGAKPLKKAVVMPLQLIQEQAASPNAEIHILKNKGRKRKLESLDALEPEEKAEDCWELQISPELLAHGRQKILDLLNEGSARDLRSLQRIGPKKAQLIVGWRELHGPFSQVEDLERVEGITGKQMESFLKANILGLAAGQRCGAS
B8: PAK1IP1 (protein, UniProt Q9NWT1 1-392)
chain: MELVAGCYEQVLFGFAVHPEPEACGDHEQWTLVADFTHHAHTASLSAVAVNSRFVVTGSKDETIHIYDMKKKIEHGALVHHSGTITCLKFYGNRHLISGAEDGLICIWDAKKWECLKSIKAHKGQVTFLSIHPSGKLALSVGTDKTLRTWNLVEGRSAFIKNIKQNAHIVEWSPRGEQYVVIIQNKIDIYQLDTASISGTITNEKRISSVKFLSESVLAVAGDEEVIRFFDCDSLVCLCEFKAHENRVKDMFSFEIPEHHVIVSASSDGFIKMWKLKQDKKVPPSLLCEINTNARLTCLGVWLDKVADMKESLPPAAEPSPVSKEQSKIGKKEPGDTVHKEEKRSKPNTKKRGLTGDSKKATKESGLISTKKRKMVEMLEKKRKKKKIKTMQ

Biological target: mEGFP-iso6 (FMRP nuclear isoform iso6 fused to GFP) (human) (UniProt Q06787)
Experiment: affinity purification with mass spectrometry; stringent conditions: GFP-Trap on whole-cell lysate of U2OS stably expressing GFP-iso6 or GFP-iso1, half the number of cells of the first screen, 6 GFP-free U2OS controls, <=1% FDR; cells mock-treated or treated with aphidicolin (APH) for 24 h

binding	Molecule
binds	APP (from UniProt P05067 18-770)
binds	C1QBP (from UniProt Q07021 74-282)
binds	HP1BP3 (from UniProt Q5SSJ5 1-553)
binds	ITM2B (from UniProt Q9Y287 1-266)
binds	LRP1 (from UniProt Q07954 20-4544)
binds	PCF11 (from UniProt O94913 1-1555)
binds	PI4KA (from UniProt P42356 1-2102)
binds	PSMC4 (from UniProt P43686 1-418)
binds	PSMC6 (from UniProt P62333 1-389)
binds	PSMD3 (from UniProt O43242 1-534)
binds	PSMD4 (from UniProt P55036 1-377)
binds	PSMD7 (from UniProt P51665 1-324)
binds	PSMD13 (from UniProt Q9UNM6 1-376)
binds	PSMD14 (from UniProt O00487 1-310)
binds	RFC2 (from UniProt P35250 1-354)
binds	YLPM1 (from UniProt P49750 1-2146)
binds	B1
binds	B2
binds	B3
binds	B4
binds	B5
binds	B6
binds	B7
binds	B8
